These results are taken from US20150044244A1, “COMBINED FACILITATOR, ANTIGEN AND DNA VACCINE FOR PREVENTING AND TREATING AUTOIMMUNE DISEASES” (BEIJING ADVANCCINE BIOTECHNOLOGY CO. LTD., priority 2011, published 2015).

Results are given in words; binding and its absence hold for the method and conditions named. Some results given as binding are weak or reduced against the parent protein; the word gives no strength. Where a sequence is shown, tags or fusion partners need not be part of it.

The target of this assay is T1, MHC-II (I-Ad), as assessed in the tetramer staining-based epitope competition assay (mouse) (UniProt P04228+P01921).
T1 sequence (MHC II alpha, looked up): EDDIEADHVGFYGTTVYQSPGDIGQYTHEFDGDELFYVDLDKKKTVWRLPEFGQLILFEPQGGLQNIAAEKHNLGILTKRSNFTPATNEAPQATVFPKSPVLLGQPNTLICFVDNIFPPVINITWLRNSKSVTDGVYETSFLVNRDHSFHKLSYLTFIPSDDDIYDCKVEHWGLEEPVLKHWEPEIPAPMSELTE
T1 sequence (MHC II beta, looked up): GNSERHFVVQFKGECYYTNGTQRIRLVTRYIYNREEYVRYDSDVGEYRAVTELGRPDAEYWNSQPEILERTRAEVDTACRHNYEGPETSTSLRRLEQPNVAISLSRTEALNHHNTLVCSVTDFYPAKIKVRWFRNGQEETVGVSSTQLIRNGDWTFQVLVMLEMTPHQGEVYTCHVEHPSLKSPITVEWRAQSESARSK
Put plainly: tetramer staining-based epitope competition assay, flow cytometry on DO11.10 T cells; competitor: PE-conjugated OVA323-339-loaded I-Ad tetramer. For orientation: Flow cytometry measures light scatter and fluorescence of single cells or particles in a stream.

In the case of ISQAVHAAHAEINEAGR [OVA323-339, dominant epitope of hen ovalbumin for I-Ad], the binding result is “binds”.
